Source: the supplement of paper PMC6411743
± gives the standard deviation of the averaged measurements. The entries are a selection whose mix differs from that of the whole data set.

Protein sequences, listed by entry. Tags and fused reporters are not part of them. Lines headed by an entry give the natural chain unless they say otherwise; changes in a name come on top.
UniProt Q96S99: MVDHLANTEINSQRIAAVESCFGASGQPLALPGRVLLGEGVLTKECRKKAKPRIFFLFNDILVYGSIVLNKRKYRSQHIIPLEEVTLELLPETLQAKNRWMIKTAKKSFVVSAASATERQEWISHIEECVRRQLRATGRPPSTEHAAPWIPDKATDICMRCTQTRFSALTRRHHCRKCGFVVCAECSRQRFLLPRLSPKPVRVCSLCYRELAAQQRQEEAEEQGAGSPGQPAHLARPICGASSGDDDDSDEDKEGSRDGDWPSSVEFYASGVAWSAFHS
UniProt Q96EE3: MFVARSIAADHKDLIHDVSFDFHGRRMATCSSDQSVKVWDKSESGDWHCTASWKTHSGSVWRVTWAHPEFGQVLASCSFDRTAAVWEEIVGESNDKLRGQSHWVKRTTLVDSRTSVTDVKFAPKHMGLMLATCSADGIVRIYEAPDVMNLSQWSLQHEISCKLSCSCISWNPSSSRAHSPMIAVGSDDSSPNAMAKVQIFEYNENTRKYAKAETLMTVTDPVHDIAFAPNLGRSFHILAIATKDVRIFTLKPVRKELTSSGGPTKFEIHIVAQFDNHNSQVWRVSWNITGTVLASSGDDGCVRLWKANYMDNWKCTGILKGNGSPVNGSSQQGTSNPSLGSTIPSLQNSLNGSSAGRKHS
UniProt Q96SU4: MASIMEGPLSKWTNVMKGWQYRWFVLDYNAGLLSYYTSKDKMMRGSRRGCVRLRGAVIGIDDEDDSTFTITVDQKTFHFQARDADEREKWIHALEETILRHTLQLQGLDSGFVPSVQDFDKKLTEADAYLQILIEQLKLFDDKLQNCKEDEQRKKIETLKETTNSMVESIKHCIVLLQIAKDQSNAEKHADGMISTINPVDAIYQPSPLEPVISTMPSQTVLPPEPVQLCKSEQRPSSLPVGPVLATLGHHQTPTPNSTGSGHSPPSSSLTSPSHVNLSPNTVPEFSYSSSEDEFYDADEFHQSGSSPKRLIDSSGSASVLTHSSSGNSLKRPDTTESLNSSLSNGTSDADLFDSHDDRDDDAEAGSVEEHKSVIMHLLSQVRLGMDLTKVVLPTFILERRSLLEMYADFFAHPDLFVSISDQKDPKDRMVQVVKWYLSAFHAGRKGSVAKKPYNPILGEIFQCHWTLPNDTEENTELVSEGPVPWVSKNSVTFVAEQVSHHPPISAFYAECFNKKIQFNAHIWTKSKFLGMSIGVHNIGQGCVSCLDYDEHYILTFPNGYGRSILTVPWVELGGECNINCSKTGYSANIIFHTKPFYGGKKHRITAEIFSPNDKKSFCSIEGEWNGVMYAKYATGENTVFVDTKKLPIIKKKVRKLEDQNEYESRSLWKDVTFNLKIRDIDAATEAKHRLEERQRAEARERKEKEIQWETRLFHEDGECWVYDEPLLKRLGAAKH
UniProt Q96F44: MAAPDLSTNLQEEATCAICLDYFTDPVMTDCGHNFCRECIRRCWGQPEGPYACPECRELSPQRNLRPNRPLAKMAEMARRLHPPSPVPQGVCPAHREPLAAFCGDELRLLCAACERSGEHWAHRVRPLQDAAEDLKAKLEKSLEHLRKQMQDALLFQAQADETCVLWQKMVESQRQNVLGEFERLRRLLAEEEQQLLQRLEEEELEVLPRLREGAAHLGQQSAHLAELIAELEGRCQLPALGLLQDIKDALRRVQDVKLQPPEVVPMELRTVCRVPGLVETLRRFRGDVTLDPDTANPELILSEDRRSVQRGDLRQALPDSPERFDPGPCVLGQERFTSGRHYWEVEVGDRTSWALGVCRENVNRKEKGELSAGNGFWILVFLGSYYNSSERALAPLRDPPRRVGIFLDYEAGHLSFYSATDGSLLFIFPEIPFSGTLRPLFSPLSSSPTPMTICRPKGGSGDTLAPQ
UniProt Q96Q42: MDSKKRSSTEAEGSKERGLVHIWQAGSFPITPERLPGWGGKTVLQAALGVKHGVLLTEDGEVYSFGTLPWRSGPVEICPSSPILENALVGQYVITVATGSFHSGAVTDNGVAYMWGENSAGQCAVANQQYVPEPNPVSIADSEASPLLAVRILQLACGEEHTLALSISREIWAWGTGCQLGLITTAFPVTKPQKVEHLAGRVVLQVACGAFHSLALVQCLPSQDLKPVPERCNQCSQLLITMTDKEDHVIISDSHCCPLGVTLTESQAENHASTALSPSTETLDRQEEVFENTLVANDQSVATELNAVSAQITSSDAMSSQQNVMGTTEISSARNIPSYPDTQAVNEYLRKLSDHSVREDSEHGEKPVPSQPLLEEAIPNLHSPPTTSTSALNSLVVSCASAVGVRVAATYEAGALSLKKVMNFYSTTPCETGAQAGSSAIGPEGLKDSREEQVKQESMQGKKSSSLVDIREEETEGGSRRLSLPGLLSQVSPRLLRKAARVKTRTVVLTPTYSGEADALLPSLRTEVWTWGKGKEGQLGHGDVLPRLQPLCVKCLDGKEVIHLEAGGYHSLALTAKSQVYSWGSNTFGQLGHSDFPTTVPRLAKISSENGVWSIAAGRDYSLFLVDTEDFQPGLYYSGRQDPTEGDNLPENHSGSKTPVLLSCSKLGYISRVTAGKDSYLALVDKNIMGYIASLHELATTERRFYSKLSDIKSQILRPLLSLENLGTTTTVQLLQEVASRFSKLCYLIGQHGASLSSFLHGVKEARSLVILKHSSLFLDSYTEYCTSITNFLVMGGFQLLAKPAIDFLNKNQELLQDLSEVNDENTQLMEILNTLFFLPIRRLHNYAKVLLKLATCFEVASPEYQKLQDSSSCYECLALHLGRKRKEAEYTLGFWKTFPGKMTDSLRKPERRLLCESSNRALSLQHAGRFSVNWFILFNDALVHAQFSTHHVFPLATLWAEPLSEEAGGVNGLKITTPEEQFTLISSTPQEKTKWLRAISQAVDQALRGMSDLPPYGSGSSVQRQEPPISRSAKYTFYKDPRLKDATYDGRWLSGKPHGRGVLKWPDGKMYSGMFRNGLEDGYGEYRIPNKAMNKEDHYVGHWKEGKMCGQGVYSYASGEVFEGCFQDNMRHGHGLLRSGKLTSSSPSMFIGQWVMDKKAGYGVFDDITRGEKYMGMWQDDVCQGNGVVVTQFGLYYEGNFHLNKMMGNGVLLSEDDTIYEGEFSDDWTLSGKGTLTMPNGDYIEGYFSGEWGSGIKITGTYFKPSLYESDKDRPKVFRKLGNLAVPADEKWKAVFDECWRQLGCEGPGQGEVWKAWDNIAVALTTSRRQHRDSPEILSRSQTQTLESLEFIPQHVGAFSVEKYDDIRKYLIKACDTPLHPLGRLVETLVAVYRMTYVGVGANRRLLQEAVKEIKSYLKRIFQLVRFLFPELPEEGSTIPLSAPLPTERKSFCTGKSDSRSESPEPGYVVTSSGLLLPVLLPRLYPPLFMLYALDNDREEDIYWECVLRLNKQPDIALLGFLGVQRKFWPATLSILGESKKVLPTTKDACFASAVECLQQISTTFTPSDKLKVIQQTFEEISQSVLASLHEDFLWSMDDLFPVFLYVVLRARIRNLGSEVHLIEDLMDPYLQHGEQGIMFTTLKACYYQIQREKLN
UniProt Q96S94: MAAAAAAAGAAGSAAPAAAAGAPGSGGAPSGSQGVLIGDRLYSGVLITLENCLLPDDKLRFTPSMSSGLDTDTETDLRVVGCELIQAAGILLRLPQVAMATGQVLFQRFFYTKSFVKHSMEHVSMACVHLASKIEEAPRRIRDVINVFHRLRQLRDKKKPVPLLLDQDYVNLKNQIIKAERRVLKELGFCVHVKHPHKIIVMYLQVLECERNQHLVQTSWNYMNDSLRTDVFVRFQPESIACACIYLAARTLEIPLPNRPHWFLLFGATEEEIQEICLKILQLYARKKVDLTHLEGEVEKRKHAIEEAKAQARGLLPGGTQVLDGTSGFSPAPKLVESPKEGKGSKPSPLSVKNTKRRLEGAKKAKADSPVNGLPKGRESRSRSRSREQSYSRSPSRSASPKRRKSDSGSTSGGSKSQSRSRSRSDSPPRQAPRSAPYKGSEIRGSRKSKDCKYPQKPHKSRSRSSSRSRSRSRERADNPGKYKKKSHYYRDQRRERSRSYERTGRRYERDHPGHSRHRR
UniProt Q96DA6: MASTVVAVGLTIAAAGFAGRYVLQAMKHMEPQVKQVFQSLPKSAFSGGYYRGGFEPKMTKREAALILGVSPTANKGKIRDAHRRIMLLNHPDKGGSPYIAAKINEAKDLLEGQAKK
UniProt Q96RG2: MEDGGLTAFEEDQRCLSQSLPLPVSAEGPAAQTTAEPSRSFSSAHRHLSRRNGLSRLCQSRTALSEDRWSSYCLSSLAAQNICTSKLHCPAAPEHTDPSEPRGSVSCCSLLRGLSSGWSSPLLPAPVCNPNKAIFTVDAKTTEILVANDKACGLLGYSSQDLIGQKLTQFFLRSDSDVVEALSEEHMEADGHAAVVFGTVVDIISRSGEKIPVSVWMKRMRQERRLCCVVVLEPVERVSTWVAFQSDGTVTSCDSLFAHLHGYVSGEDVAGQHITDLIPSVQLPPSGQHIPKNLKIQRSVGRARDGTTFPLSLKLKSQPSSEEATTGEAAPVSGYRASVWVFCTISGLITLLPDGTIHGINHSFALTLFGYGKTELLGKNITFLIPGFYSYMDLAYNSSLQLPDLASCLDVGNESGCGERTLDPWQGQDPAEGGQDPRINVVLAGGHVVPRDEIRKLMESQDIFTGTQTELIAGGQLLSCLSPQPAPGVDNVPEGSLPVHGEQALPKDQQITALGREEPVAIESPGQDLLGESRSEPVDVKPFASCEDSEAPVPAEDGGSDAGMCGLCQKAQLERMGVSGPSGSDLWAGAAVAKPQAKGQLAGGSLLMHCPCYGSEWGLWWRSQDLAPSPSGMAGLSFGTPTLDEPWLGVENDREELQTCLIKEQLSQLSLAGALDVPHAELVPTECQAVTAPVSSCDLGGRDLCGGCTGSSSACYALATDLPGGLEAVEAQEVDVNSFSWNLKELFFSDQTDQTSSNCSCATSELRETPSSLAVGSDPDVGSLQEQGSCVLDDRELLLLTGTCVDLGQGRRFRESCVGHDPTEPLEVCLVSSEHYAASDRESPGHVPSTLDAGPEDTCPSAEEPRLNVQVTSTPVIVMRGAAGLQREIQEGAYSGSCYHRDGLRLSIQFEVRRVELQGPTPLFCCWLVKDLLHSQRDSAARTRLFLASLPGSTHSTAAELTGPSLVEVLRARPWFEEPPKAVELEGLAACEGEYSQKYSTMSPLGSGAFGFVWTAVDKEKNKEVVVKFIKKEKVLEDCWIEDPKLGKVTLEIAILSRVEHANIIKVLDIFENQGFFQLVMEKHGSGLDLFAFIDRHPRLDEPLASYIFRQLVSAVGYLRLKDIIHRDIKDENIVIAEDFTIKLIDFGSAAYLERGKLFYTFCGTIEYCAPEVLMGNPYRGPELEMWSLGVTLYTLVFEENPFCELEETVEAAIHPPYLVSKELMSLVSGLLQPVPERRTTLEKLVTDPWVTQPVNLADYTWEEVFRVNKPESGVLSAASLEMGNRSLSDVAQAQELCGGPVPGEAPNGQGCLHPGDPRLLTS
UniProt Q96E09: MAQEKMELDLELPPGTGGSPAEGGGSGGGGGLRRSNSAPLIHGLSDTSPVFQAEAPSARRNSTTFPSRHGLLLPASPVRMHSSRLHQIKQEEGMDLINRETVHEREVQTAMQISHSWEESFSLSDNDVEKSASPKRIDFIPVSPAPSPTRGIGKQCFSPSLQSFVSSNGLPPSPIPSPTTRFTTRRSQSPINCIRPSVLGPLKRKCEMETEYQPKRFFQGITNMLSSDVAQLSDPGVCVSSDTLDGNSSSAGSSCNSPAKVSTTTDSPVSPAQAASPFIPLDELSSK
UniProt Q96SB3: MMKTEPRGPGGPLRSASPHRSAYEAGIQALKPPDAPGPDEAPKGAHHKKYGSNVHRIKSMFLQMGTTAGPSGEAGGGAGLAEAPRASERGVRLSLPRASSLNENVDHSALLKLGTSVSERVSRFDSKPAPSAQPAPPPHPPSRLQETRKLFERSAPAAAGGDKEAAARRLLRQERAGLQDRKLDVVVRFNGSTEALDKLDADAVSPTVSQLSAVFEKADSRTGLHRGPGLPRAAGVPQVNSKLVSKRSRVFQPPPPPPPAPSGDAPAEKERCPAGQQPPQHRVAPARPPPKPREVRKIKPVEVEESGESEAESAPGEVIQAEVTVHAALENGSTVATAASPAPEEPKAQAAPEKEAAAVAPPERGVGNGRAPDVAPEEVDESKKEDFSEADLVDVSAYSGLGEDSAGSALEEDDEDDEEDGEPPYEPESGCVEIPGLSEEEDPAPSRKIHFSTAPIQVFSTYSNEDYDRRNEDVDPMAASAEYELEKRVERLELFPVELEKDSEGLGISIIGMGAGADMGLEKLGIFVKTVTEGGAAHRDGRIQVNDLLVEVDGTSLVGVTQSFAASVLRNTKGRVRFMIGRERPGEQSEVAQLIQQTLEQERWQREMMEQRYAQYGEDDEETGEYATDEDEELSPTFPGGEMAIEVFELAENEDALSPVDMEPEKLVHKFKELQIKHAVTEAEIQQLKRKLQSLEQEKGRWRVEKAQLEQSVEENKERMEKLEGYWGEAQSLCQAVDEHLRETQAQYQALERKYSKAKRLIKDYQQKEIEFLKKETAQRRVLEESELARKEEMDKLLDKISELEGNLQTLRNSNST

Compound: Nc1ncnc2c1ncn2[C@@H]1O[C@H](COP(=O)(O)OP(=O)(O)OP(=O)(O)O)[C@@H](O)[C@H]1O [adenosine triphosphate]
Experiment: NP40-soluble protein abundance relative to vehicle (solubility fold change) (ratio); higher = more soluble protein in presence of ATP
Method in brief: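 Values are fold changes against the detergent-processed vehicle, based on vsn-normalised intensities. Jurkat crude lysate was treated at eight concentrations from 0.1 to 10 mM (10 min at room temperature, then 3 min at 37 °C), solubilised with 0.8% NP40 and benzonase, ultracentrifuged and analysed by TMT-labelled LC-MS/MS over three independent experiments.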

Target	NP40-soluble protein abundance (concentration: 1mM)	NP40-soluble protein abundance (concentration: 2mM)	NP40-soluble protein abundance (concentration: 4mM)	NP40-soluble protein abundance (concentration: 6mM)	NP40-soluble protein abundance (concentration: 8mM)	NP40-soluble protein abundance (concentration: 10mM)
UniProt Q96BT7 and related entries	1.03 ± 0.082	1.05 ± 0.037	1.08 ± 0.07	1.01 ± 0.059	1.03 ± 0.046	1.08 ± 0.12
PLEKHF1 (UniProt Q96S99)	0.979 ± 0.056	0.997 ± 0.05	0.962 ± 0.037	0.901 ± 0.063	0.951 ± 0.042	0.968 ± 0.019
UniProt Q96EE3 and related entries	1.04 ± 0.096	1.09 ± 0.05	1.09 ± 0.065	1.05 ± 0.065	1.06 ± 0.033	1.14 ± 0.044
PIGS (UniProt Q96S52)	1.02 ± 0.12	1.02 ± 0.043	0.997 ± 0.076	0.945 ± 0.098	1.02 ± 0.022	1.03 ± 0.037
CNDP2 (UniProt Q96KP4)	1.01 ± 0.053	1.01 ± 0.07	0.954 ± 0.059	0.964 ± 0.11	0.977 ± 0.065	0.971 ± 0.072
UniProt Q96D53	1.3 ± 0.23	1.22 ± 0.21	1.24 ± 0.28	1.26 ± 0.25	1.29 ± 0.19	1.25 ± 0.21
UniProt Q96QD8 and related entries	1.03 ± 0.078	1.03 ± 0.052	0.987 ± 0.011	1.1 ± 0.031	0.916 ± 0.013	0.908 ± 0.046
UniProt Q96HH6 and related entries	1.05 ± 0.068	1.01 ± 0.037	0.982 ± 0.02	0.925 ± 0.055	0.977 ± 0.055	0.973 ± 0.046
PPP1R10 (UniProt Q96QC0)	0.981 ± 0.018	0.997 ± 0.021	1.04 ± 0.038	1.11 ± 0.026	1.067 ± 0.0049	1.1 ± 0.016
UniProt Q96T37-3|A0A087WWP4|Q96T37 and related entries	1.05 ± 0.034	1.101 ± 0.011	1.12 ± 0.034	1.16 ± 0.04	1.13 ± 0.046	1.205 ± 0.0098
UniProt Q96FJ2	1 ± 0.11	0.941 ± 0.068	0.883 ± 0.095	0.993 ± 0.12	0.994 ± 0.034	0.87 ± 0.15
OSBPL9 (UniProt Q96SU4)	0.975 ± 0.022	0.987 ± 0.032	0.962 ± 0.016	0.972 ± 0.034	0.965 ± 0.025	0.977 ± 0.036
UniProt Q96F44 and related entries	1.01 ± 0.025	1.03 ± 0.062	0.982 ± 0.07	1.044 ± 0.0095	0.98 ± 0.057	0.974 ± 0.045
UniProt Q96RF0-2|Q96RF0 and related entries	1.06 ± 0.13	1.05 ± 0.093	1.07 ± 0.12	1.06 ± 0.11	1.04 ± 0.12	1.04 ± 0.088
UniProt Q96Q42 and related entries	1.4 ± 0.21	1.54 ± 0.7	1.3 ± 0.2	1.59 ± 0.39	1.17 ± 0.077	1.17 ± 0.17
SLC7A6OS (UniProt Q96CW6)	0.937 ± 0.07	0.96 ± 0.023	0.988 ± 0.046	0.976 ± 0.075	0.925 ± 0.046	0.944 ± 0.072
UniProt Q96MH6 and related entries	1.05 ± 0.16	1.1 ± 0.1	1.06 ± 0.099	1.01 ± 0.13	1.08 ± 0.032	1.01 ± 0.015
FBXL8 (UniProt Q96CD0)	0.963 ± 0.11	0.979 ± 0.073	1.01 ± 0.079	0.966 ± 0.097	0.968 ± 0.069	0.94 ± 0.035
EXOC2 (UniProt Q96KP1)	0.975 ± 0.073	1.02 ± 0.081	1 ± 0.014	0.956 ± 0.038	0.9934 ± 0.0077	1.01 ± 0.024
CCNL2 (UniProt Q96S94)	0.88699 ± 0.00036	0.876 ± 0.021	0.799 ± 0.029	0.844 ± 0.0093	0.783 ± 0.012	0.861 ± 0.037
UniProt Q96DA6 and related entries	0.956 ± 0.072	0.983 ± 0.071	0.969 ± 0.051	0.971 ± 0.11	0.992 ± 0.044	0.92 ± 0.068
UniProt Q96BS2 and related entries	0.984 ± 0.026	1.07 ± 0.075	0.975 ± 0.15	0.989 ± 0.059	0.982 ± 0.04	0.986 ± 0.05
UniProt Q96BW9-2|Q96BW9-3|Q96BW9	1.12 ± 0.084	1.14 ± 0.075	1.11 ± 0.03	1.05 ± 0.1	1.11 ± 0.033	1.12 ± 0.012
UniProt Q96DU3-2|Q96DU3	0.928 ± 0.034	0.945 ± 0.033	0.9556 ± 0.0076	0.968 ± 0.028	0.911 ± 0.022	0.905 ± 0.03
UniProt Q96RG2 and related entries	0.968 ± 0.025	0.981 ± 0.051	0.966 ± 0.027	0.9639 ± 0.0075	0.948 ± 0.058	0.949 ± 0.027
UniProt Q96MX0 and related entries	0.774 ± 0.017	0.722 ± 0.027	0.711 ± 0.0094	0.581 ± 0.048	0.595 ± 0.022	0.595 ± 0.1
UniProt Q96DF8	0.939 ± 0.091	0.982 ± 0.078	0.984 ± 0.09	1 ± 0.1	0.988 ± 0.054	1.01 ± 0.068
FAM122A (UniProt Q96E09)	1.01 ± 0.15	0.954 ± 0.057	0.965 ± 0.077	0.955 ± 0.12	0.999 ± 0.16	1 ± 0.089
UniProt Q96G28	0.969 ± 0.092	0.959 ± 0.05	0.932 ± 0.032	0.961 ± 0.058	0.92 ± 0.0096	0.888 ± 0.034
UniProt Q96SB3 and related entries	0.917 ± 0.12	0.931 ± 0.088	1.05 ± 0.069	1.19 ± 0.029	1.19 ± 0.12	1.39 ± 0.15

No new results follow: entries from further up.
Target	NP40-soluble protein abundance (concentration: 1mM)	NP40-soluble protein abundance (concentration: 2mM)	NP40-soluble protein abundance (concentration: 4mM)	NP40-soluble protein abundance (concentration: 6mM)	NP40-soluble protein abundance (concentration: 8mM)	NP40-soluble protein abundance (concentration: 10mM)
CNDP2 (UniProt Q96KP4)	1.01 ± 0.053	1.01 ± 0.07	0.954 ± 0.059	0.964 ± 0.11	0.977 ± 0.065	0.971 ± 0.072
UniProt Q96D53	1.3 ± 0.23	1.22 ± 0.21	1.24 ± 0.28	1.26 ± 0.25	1.29 ± 0.19	1.25 ± 0.21
